No constants are given. Whether binding was seen depends on the method and setting. Some binding calls cover weakened binding; strength is not graded here.
Tests used:
[1] = target: T1, Zinc transporter ZIP4 (human) (UniProt Q6P5W5); experiment: western blot, lysates of Zip4-RWP1 cells vs control RWP1 cells
T1 sequence (looked up): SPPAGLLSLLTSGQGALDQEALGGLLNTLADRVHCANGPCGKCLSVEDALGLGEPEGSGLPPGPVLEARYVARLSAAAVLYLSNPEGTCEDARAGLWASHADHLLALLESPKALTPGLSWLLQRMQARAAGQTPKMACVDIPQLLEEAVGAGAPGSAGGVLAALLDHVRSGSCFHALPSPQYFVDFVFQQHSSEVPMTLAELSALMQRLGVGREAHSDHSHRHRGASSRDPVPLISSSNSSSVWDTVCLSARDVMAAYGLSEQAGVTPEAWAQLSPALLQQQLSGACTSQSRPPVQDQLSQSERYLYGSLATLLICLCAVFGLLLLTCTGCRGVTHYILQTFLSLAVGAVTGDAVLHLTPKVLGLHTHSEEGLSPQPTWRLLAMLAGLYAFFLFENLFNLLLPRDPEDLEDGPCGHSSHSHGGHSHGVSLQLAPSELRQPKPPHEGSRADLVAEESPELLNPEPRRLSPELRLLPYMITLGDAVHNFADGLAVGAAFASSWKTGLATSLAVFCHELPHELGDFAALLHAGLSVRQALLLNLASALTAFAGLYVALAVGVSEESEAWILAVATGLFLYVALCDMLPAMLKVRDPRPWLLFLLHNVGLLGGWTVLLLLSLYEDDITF

[2] = target: T1, Zinc transporter ZIP4 (human); experiment: western blot and surface immunostaining, Zip4 expressing RWP1 cells (figure legend)
[3] = target: T1, Zinc transporter ZIP4 (human); experiment: surface immunostaining of live Zip4-RWP1 cells, 50 ug/ml antibody, 1 h at 37 C, confocal microscopy

Measured: binding

B1: Antibody 1 (clone 33), monoclonal antibody anti Zip4 (antibody, V domains shown)
VH: EVKLQESGPSLVKPSQSLSLTCSVTGYSITSAYYWNWIRQFPGNKLEWMGYIAYDGGNNYNPSLKNRISITRDTSKNQFFLKLNSVTTEDTATYYCVRDWSRAMDYWGQGTSVTVSS
VL: DIMLTQSPLSLPVSLGDQASISCRSSQSLVHSTGNTYLHWYLQKPGQSPKLLIYKVSSRFSGVPDRFSGSGSGTDFTLRISRVEADDLGVYFCSQTTHVPLTFGAGTKLELK
binds: [1] | [2] | [3]

B2: Antibody 2 (clone 62), monoclonal antibody anti Zip4 (antibody, V domains shown)
VH: EVKLQESGPSLVKPSQSLSLTCSVTGYSITSAYYWNWIRQFPGNKLEWMGYIAYDGGNNYNPSLKNRISITRDTSKNQFFLKLNSVTTEDTATYYCVRDWSRAMDYWGQGTSVTVSS
VL: DIVLTQSPAIMSASPGEKVTITCSASSSVSYLHWFQQKPGTSPKLWIYSTSNLASGVPARFSASGSGTSYSLTISRMEAEDAATYYCQQRSTYPLTFGGGTKLELK
binds: [1] | [2] | [3]

From US20230211005A1
